Experimental data: PubChem BioAssay AID652243 (Drosophila RNAi Screening Center, 2013)
Assay: 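Knock-downs that decrease or increase androgen receptor reporter signal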 (primary screen). Cell system: Drosophila S2R+ cells. Reagents: long dsRNA against Drosophila genes. Time to read-out: 72 h (48 h, then 24 h hormone). Challenge: synthetic androgen R1881 at 10 nM for 24 h. Measured: 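Firefly light from an androgen-responsive reporter and Renilla control light per well, raw and unnormalised, for each of two replicates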. Scale: firefly reporter light: higher = more light from androgen-responsive reporter; Renilla control light: higher = more constitutive control signal (cell number, transfection). Hit rule: 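Hit when the log firefly-to-Renilla ratio dropped or increased by a fixed fold versus the mean of GFP or LacZ controls across duplicate plates; lowering cut given as 1.5 and as 3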. Calls: active = hit: reporter lowered or raised; inactive = no hit.
In all, the deposit lists about 24,000 reagents; shown is a random part of those that have a named target and a result. In the full data, 246 (1%) are marked active. 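Plates not normalised; calls are printed but the firefly/Renilla ratio behind them is not deposited; fold cut for lowering reported inconsistently.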 Raw values are not corrected between plates. Reagents against one gene are numbered here. A plus sign joins genes that one reagent is predicted to hit. The record does not give: the amount of reagent.

predicted target	reagent	firefly reporter light, replicate 1	firefly reporter light, replicate 2	Renilla control light, replicate 1	Renilla control light, replicate 2	outcome
shv (GeneID 33220)	1	28352	29359	3.69e5	2.70e5	inactive
shv (GeneID 33220)	2	5.65e5	7.45e5	2.79e6	2.36e6	inactive
shv (GeneID 33220)	3	37270	94590	90071	1.45e5	inactive
shv (GeneID 33220)	4	1.54e5	1.74e5	2.94e5	2.17e5	inactive
Deaf1 (GeneID 40164)	1	2.90e5	2.54e5	1.23e6	1.66e6	inactive
Deaf1 (GeneID 40164)	2	3.30e5	4.69e5	7.80e5	1.23e6	inactive
Deaf1 (GeneID 40164)	3	3.70e5	3.88e5	8.47e5	7.04e5	inactive
Cdc42 (GeneID 32981)	1	1.16e5	74072	4.15e5	3.45e5	inactive
Cdc42 (GeneID 32981)	2	8.68e5	9.86e5	7.18e5	6.73e5	inactive
gcm2 (GeneID 34280)	1	78940	95521	7.65e5	7.76e5	inactive
gcm2 (GeneID 34280)	2	7.65e5	6.66e5	1.21e6	1.38e6	inactive
CG9586 (GeneID 34241)	1	2.26e5	2.02e5	2.27e6	2.03e6	inactive
CG9586 (GeneID 34241)	2	2.78e5	3.17e5	6.72e5	8.27e5	inactive
CG5565 (GeneID 33323)	1	1.12e5	89558	9.11e5	8.19e5	inactive
CG44085 (GeneID 34732)	1	2.36e5	3.33e5	1.48e6	2.06e6	inactive
CG44085 (GeneID 34732)	2	6.78e5	7.93e5	1.22e6	1.26e6	inactive
SWIP (GeneID 32594)	1	4.35e5	4.27e5	3.69e6	2.94e6	inactive
Grip163 (GeneID 39365)	1	1.07e5	1.26e5	1.74e6	1.62e6	inactive
Grip163 (GeneID 39365)	2	3.14e5	3.10e5	5.80e5	7.12e5	inactive

The list goes on, starting with the last 4 of the part before.
predicted target	reagent	firefly reporter light, replicate 1	firefly reporter light, replicate 2	Renilla control light, replicate 1	Renilla control light, replicate 2	outcome
CG44085 (GeneID 34732)	2	6.78e5	7.93e5	1.22e6	1.26e6	inactive
SWIP (GeneID 32594)	1	4.35e5	4.27e5	3.69e6	2.94e6	inactive
Grip163 (GeneID 39365)	1	1.07e5	1.26e5	1.74e6	1.62e6	inactive
Grip163 (GeneID 39365)	2	3.14e5	3.10e5	5.80e5	7.12e5	inactive
Ncc69 (GeneID 39410)	1	7.39e5	7.34e5	1.14e6	1.25e6	inactive
Ncc69 (GeneID 39410)	2	2.85e5	3.64e5	2.29e6	2.17e6	inactive
Ncc69 (GeneID 39410)	3	7.64e5	9.37e5	1.13e6	1.30e6	inactive
CG12531 (GeneID 32986)	1	1.26e5	81407	3.37e5	2.54e5	inactive
CG12531 (GeneID 32986)	2	2.37e5	3.16e5	7.97e5	7.97e5	inactive
BubR1 (GeneID 35522)	1	3.32e5	3.83e5	1.72e6	1.78e6	inactive
BubR1 (GeneID 35522)	2					inactive
BubR1 (GeneID 35522)	3					inactive
CG31633 (GeneID 33931)	1	1.91e5	1.17e5	2.05e6	1.58e6	inactive
CG31633 (GeneID 33931)	2	4.31e5	3.93e5	7.05e5	3.54e5	inactive
CG34267 + CG34268	1	9.05e5	9.32e5	1.79e6	1.55e6	inactive
CG2111 (GeneID 31995)	1	3.98e5	4.12e5	2.81e6	2.62e6	inactive
CG2111 (GeneID 31995)	2	2.16e5	2.32e5	4.09e5	6.13e5	inactive
Sod2 (GeneID 36878)	1	1.05e6	9.43e5	1.83e6	1.82e6	inactive
Sod2 (GeneID 36878)	2	3.34e5	2.60e5	8.71e5	7.03e5	inactive
CG3632 (GeneID 32589)	1	1.16e5	1.03e5	6.62e5	6.18e5	inactive
CG3632 (GeneID 32589)	2					inactive
CG3632 (GeneID 32589)	3					inactive
GstO2 (GeneID 38974)	1	4.30e5	4.44e5	9.69e5	1.26e6	inactive
GstO2 (GeneID 38974)	2	6.00e5	5.36e5	1.35e6	1.12e6	inactive
COX7A (GeneID 50002)	1	1.27e5	1.32e5	2.25e6	1.83e6	inactive
CG15143 (GeneID 35062)	1	1.70e5	1.70e5	1.85e6	2.01e6	inactive
CG14495 (GeneID 37056)	1	85296	65607	1.59e6	1.59e6	inactive
epsilonTry (GeneID 49080)	1	1.71e5	1.90e5	1.05e6	9.15e5	inactive
epsilonTry (GeneID 49080)	2	8.21e5	6.39e5	4.64e5	5.57e5	inactive
Ilk (GeneID 53573)	1	4.91e5	6.08e5	2.89e6	3.76e6	inactive
Ilk (GeneID 53573)	2					inactive
CG32444 (GeneID 40406)	1	59637	75616	3.35e5	3.71e5	inactive
CG10209 (GeneID 36652)	1	1.12e6	8.03e5	2.98e6	2.40e6	inactive
CG32391 (GeneID 318007)	1	89379	1.19e5	3.65e5	4.39e5	inactive
CG11703 (GeneID 42307)	1	1.10e5	1.19e5	8.99e5	9.05e5	inactive
CG11703 (GeneID 42307)	2	2.69e5	1.83e5	5.38e5	4.64e5	inactive
CR46300 (GeneID 3885581)	1	5.64e5	7.37e5	1.19e6	1.46e6	inactive
CG13840 (GeneID 42705)	1	1.05e6	9.05e5	1.62e6	1.41e6	inactive
CG13840 (GeneID 42705)	2	3.59e5	4.26e5	9.34e5	1.07e6	inactive
Nup133 (GeneID 42680)	1	51121	81006	6.78e5	8.55e5	inactive
CG14644 (GeneID 40536)	1	41514	70302	1.20e6	9.91e5	inactive
Ir60b (GeneID 7354400)	1	2.54e5	2.78e5	1.84e6	1.65e6	inactive
Pal1 + Pdrg1	1	4.27e5	2.91e5	1.82e6	2.18e6	inactive
